Values quoted from earlier work in patent US5919374A, “Method of disinfecting water with iodine species” (Iosolutions Incorporated, priority 1997, dated 1999).
For at least one compound, name, drawing or mass did not settle the structure.

Conditions: cited from earlier work

Compound: I[IH]I [I3^-]
- germicidal action: ineffectual as a germicide
